# Data published in the supplement of paper PMC12819154, “High-throughput peptide-centric local stability assay extends protein–ligand identification to membrane proteins, tissues and bacteria” (Nature Structural & Molecular Biology, 2025).
# By UniProt entry, the sequences of proteins in these tests, tags left out. Where a name states a change or a piece, a line headed by the entry shows the natural chain unless it says otherwise.
# UniProt Q96LR5: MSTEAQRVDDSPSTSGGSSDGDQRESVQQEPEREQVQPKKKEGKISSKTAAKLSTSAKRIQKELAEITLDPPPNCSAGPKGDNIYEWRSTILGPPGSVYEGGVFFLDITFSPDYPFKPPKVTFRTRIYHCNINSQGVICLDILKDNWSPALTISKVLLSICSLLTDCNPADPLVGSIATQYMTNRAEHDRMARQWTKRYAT
# UniProt Q96HU1: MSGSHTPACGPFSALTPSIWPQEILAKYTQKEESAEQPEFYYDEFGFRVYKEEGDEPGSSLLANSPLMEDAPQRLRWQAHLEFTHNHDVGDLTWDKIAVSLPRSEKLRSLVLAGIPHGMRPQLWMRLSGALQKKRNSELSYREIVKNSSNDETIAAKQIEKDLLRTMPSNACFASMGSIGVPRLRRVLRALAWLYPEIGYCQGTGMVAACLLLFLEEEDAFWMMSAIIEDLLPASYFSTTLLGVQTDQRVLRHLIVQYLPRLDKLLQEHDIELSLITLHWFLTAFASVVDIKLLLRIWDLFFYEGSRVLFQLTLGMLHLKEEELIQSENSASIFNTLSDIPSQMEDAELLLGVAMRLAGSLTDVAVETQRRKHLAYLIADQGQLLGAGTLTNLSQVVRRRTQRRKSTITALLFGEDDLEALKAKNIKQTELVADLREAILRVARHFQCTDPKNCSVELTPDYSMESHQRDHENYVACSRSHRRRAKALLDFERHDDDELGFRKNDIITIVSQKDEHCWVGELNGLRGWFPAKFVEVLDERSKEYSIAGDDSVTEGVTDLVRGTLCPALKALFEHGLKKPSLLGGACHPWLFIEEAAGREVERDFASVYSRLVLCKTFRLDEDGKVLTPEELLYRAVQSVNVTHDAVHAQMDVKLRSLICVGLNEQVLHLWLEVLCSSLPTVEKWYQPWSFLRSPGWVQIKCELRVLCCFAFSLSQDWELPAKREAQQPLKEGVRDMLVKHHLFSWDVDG
# UniProt Q96PU4: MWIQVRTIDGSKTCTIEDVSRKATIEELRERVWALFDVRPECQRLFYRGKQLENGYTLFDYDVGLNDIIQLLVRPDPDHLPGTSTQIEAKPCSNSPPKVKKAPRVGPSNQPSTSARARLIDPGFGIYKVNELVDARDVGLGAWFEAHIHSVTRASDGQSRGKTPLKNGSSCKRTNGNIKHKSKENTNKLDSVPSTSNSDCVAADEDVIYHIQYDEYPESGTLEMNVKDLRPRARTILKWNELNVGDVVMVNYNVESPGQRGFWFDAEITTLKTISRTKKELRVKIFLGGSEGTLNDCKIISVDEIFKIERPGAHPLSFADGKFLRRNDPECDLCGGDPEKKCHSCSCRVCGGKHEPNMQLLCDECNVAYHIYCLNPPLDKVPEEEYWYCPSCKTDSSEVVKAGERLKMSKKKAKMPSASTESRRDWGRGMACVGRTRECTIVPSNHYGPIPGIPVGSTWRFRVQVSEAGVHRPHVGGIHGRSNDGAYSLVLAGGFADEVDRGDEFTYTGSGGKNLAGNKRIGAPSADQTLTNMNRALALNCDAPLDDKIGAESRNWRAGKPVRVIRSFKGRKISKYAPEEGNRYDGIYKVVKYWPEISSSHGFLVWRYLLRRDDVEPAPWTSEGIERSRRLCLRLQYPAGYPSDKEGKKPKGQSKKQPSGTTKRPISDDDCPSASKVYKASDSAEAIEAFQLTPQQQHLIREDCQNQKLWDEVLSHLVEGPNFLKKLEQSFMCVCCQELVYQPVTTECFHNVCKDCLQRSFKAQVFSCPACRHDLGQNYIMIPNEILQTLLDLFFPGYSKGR
# UniProt Q96L73: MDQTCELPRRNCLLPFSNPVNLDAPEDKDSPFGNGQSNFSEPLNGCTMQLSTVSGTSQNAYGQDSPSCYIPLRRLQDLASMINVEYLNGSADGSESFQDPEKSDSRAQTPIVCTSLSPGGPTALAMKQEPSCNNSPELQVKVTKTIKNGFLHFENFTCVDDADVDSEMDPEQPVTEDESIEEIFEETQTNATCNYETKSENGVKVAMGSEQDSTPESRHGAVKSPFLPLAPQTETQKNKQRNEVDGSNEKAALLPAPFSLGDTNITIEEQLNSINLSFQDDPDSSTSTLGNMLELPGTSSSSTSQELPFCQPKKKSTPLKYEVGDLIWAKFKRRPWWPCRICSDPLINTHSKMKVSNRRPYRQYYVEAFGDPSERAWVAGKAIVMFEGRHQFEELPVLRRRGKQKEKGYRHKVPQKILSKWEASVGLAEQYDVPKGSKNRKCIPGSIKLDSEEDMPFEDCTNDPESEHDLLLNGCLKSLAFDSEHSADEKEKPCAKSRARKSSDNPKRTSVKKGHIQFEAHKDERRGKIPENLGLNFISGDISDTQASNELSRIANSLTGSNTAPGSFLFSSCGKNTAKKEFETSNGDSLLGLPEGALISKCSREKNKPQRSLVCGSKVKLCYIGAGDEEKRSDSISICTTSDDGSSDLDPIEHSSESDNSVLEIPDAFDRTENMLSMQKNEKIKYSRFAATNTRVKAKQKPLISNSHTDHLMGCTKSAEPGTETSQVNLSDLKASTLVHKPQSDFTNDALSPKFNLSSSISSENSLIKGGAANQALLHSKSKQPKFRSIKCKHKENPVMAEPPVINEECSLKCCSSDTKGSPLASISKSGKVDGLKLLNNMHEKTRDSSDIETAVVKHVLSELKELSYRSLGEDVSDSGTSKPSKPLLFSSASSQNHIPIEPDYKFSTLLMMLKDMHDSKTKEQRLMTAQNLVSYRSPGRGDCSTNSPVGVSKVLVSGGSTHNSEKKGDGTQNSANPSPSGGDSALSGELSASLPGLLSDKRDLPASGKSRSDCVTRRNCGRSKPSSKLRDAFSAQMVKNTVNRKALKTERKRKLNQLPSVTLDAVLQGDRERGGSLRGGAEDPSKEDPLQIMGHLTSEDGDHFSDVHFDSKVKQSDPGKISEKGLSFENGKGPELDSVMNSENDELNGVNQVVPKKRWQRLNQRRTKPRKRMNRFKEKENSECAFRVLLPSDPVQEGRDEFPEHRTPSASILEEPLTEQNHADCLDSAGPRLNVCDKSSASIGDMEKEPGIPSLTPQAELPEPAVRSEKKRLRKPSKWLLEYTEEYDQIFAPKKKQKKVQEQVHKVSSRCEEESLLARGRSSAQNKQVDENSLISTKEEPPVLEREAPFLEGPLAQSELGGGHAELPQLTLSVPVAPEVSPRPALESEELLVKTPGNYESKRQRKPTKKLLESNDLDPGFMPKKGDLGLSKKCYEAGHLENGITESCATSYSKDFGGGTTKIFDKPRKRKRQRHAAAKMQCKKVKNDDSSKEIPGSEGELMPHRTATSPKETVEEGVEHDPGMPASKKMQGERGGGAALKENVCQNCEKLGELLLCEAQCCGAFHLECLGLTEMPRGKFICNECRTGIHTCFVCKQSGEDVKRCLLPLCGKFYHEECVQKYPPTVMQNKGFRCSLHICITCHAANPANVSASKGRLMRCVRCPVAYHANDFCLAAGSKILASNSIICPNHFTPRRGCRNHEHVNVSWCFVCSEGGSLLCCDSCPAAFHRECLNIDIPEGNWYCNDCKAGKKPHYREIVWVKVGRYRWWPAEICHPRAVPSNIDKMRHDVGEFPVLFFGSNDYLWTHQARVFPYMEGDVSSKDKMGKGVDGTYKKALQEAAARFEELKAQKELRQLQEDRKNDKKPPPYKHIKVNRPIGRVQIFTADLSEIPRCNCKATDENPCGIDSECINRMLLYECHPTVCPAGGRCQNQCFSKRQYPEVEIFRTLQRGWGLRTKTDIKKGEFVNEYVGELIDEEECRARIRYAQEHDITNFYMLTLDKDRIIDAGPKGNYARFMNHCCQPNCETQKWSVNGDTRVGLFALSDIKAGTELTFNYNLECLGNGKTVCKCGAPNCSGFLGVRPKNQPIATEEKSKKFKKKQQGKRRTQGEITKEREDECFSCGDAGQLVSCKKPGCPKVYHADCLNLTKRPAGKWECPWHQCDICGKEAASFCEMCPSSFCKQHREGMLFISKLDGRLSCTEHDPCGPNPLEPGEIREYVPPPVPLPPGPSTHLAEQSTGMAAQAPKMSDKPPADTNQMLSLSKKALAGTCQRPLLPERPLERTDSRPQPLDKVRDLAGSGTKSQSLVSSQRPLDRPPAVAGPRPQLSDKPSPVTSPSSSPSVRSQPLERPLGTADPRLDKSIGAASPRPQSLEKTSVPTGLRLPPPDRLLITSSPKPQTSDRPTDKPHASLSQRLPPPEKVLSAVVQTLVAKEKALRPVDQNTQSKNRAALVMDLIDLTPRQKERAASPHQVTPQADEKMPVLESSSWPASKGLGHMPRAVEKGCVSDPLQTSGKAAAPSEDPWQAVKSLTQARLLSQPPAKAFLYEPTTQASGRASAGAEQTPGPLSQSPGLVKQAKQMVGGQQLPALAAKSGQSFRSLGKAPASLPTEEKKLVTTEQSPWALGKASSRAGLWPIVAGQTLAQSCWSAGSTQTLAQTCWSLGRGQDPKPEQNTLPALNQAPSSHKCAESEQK
# UniProt Q96Q42: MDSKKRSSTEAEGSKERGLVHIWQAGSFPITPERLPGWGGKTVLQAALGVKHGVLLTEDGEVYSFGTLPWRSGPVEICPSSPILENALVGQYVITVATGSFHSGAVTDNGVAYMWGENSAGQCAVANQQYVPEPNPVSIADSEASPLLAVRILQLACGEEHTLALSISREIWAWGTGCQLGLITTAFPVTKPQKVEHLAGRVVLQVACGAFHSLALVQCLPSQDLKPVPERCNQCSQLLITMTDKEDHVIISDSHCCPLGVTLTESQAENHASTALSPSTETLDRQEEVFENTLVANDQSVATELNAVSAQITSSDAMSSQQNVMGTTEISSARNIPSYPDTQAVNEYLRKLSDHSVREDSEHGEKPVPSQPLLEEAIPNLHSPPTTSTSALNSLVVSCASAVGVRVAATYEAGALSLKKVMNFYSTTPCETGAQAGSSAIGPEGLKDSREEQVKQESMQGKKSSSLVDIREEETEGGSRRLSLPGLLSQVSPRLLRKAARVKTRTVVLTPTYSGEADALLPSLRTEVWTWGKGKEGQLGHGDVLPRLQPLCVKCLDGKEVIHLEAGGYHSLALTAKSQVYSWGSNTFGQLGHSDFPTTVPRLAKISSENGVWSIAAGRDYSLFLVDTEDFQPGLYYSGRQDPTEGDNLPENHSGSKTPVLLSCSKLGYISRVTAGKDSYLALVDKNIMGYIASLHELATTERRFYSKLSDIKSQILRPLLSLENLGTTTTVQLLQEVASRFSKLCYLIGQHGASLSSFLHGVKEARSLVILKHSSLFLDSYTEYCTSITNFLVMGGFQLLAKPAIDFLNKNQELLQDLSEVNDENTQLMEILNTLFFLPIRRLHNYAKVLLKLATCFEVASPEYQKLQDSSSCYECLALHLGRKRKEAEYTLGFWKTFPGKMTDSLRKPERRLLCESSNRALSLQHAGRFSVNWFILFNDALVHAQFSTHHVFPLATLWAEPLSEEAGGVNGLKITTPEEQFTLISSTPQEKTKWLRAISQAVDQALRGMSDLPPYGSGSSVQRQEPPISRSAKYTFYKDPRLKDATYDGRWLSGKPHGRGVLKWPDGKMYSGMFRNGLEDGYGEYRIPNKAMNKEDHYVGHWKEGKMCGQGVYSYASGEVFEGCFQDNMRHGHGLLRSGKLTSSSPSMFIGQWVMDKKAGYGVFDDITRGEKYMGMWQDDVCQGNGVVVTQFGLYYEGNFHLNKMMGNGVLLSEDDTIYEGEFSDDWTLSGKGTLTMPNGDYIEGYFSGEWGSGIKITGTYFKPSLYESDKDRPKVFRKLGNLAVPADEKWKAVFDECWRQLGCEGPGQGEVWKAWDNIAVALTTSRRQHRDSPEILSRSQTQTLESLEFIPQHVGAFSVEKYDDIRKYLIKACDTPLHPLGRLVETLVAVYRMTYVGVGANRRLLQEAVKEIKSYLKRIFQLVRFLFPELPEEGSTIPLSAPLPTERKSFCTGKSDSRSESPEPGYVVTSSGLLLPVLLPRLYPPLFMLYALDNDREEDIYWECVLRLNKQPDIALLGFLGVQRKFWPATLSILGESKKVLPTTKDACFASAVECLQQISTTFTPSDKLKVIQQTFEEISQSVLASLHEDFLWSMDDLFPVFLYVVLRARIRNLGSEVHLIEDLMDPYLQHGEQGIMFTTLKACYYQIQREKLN
# UniProt Q96I99: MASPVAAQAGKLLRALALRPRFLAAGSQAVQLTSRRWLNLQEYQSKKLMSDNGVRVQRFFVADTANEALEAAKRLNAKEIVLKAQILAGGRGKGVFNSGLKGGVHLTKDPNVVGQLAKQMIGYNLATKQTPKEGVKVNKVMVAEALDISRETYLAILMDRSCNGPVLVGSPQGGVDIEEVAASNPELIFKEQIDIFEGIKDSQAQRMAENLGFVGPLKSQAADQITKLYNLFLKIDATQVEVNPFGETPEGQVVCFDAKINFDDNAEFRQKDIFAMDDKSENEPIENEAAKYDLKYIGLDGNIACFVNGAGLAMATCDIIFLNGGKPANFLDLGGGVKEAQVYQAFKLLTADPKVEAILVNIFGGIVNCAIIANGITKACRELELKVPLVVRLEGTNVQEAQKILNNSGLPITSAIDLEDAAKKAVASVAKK
# The list shows a part of the results. Small differences around the control level are noise.
# Compound: Cc1nc(Nc2ncc(C(=O)Nc3c(C)cccc3Cl)s2)cc(N2CCN(CCO)CC2)n1 [dasatinib]
# Assay: log2 fold change of tryptic peptide abundance, ligand vs vehicle (limited proteolysis) (log2 ratio); higher = more trypsin-susceptible (destabilized)
# Conditions: ligand concentration: 5 uM; sample: K562 cleared lysate
row,Target,log2 fold change
1,"MED30 (peptide sequence: EIAEVNKK, peptide start residue: 141) (UniProt Q96HR3)",0.0376
2,"UBE2E2 (peptide sequence: GDNIYEWR, peptide start residue: 87) (UniProt Q96LR5)",-0.116
3,"ITCH (peptide sequence: SYEQLKEK, peptide start residue: 882) (UniProt Q96J02)",-0.872
4,"SPAG5 (peptide sequence: RSPACSSLTPSLCK, peptide start residue: 42) (UniProt Q96R06)",-0.462
5,"UniProt Q96JD6 (peptide sequence: NVIVIPGSITPSHIK, peptide start residue: 261)",-0.454
6,"SGSM3 (peptide sequence: SPGWVQIK, peptide start residue: 693) (UniProt Q96HU1)",0.273
7,"UniProt Q96H40 (peptide sequence: SSHLTTHK, peptide start residue: 273)",-0.0109
8,"UniProt Q96HT8 (peptide sequence: TQVEASEESALNHVQHPSGEADER, peptide start residue: 69)",0.037
9,"REXO5 (peptide sequence: TMEGPLPSNAK, peptide start residue: 156) (UniProt Q96IC2)",-0.119
10,"CCDC136 (peptide sequence: MQLQLQTELR, peptide start residue: 391) (UniProt Q96JN2)",-0.535
11,"BORCS8 (peptide sequence: SLPELAQHK, peptide start residue: 42) (UniProt Q96FH0)",-0.219
12,"UHRF2 (peptide sequence: MPSASTESR, peptide start residue: 415) (UniProt Q96PU4)",-0.109
13,"EDC3 (peptide sequence: YRHDENILESEPIVYRR, peptide start residue: 244) (UniProt Q96F86)",-0.172
14,"UniProt Q96RT1 (peptide sequence: DLKPHEDQQDINKDVGVK, peptide start residue: 517)",-0.821
15,"UniProt Q96HB5 (peptide sequence: RLHELEEQLR, peptide start residue: 156)",0.195
16,"DDRGK1 (peptide sequence: EHEEYLK, peptide start residue: 185) (UniProt Q96HY6)",-0.241
17,"C9orf72 (peptide sequence: FFVLSEK, peptide start residue: 84) (UniProt Q96LT7)",-0.0856
18,"PRRC1 (peptide sequence: TDWHMAFTGMSR, peptide start residue: 410) (UniProt Q96M27)",0.294
19,"EHMT2 (peptide sequence: RTPLHAAAQK, peptide start residue: 686) (UniProt Q96KQ7)",0.471
20,"UniProt Q96HJ3 (peptide sequence: ALEELNQQLEK, peptide start residue: 164)",-0.431
21,"ZNF845 (peptide sequence: HHIGDFCFQEMEK, peptide start residue: 80) (UniProt Q96IR2)",0.241
22,"UniProt Q96JG9 (peptide sequence: GAPPHTNPDR, peptide start residue: 2284)",0.208
23,"RPRD1A (peptide sequence: HVSSETDESCKK, peptide start residue: 91) (UniProt Q96P16)",0.623
24,"UniProt Q96IX9 (peptide sequence: KHEDLQK, peptide start residue: 1410)",-0.0885
25,"UniProt Q96S19 (peptide sequence: CTEGLFR, peptide start residue: 118)",-0.244
26,"NSD1 (peptide sequence: LLNNMHEK, peptide start residue: 838) (UniProt Q96L73)",-0.689
27,"ALS2 (peptide sequence: YTFYKDPR, peptide start residue: 1036) (UniProt Q96Q42)",-0.429
28,"SUCLG2 (peptide sequence: FFVADTANEALEAAKR, peptide start residue: 59) (UniProt Q96I99)",0.309
29,"TRIM11 (peptide sequence: VRPLQDAAEDLK, peptide start residue: 125) (UniProt Q96F44)",-0.312

# Quoted at random: 2 records from the list, in no set order.
row,Target,log2 fold change
12,"UHRF2 (peptide sequence: MPSASTESR, peptide start residue: 415) (UniProt Q96PU4)",-0.109
29,"TRIM11 (peptide sequence: VRPLQDAAEDLK, peptide start residue: 125) (UniProt Q96F44)",-0.312
